Test results: publication PMC12882203
Results are given in words; binding and its absence hold for the method and conditions named. In cells and extracts the contact can be indirect. A result given as binding can be weak or reduced; the word gives no strength.

Chains of the proteins cited; added tags and fusions are not shown. Lines headed by an entry give the natural chain unless they say otherwise; changes in a name come on top.
UniProt Q8C6B2: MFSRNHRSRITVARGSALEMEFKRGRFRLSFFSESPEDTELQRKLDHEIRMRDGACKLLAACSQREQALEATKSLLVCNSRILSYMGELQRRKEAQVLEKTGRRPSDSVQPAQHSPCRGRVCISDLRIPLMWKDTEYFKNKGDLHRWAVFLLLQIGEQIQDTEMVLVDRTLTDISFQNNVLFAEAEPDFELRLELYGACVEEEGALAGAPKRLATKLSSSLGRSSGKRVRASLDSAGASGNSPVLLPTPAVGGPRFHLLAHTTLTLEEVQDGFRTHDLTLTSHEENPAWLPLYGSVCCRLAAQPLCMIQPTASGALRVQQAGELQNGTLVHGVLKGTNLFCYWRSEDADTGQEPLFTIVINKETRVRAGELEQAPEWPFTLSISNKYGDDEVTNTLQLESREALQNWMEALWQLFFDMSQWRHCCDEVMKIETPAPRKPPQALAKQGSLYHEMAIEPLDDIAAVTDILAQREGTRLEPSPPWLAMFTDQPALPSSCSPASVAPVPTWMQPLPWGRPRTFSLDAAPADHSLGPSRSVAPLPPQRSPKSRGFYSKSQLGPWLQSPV
UniProt Q9QUI0: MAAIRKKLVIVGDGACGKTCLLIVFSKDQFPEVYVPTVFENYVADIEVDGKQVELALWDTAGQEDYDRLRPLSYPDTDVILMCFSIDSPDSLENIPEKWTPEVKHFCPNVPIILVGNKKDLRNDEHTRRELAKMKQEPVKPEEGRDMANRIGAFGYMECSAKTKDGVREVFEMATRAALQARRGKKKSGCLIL

Tests used:
GST-Rhotekin RBD domain [1] = target: GST-Rhotekin RBD domain (UniProt Q8C6B2); test: pull-down; 2 ug recombinant GST fusion and glutathione-Sepharose beads mixed with mouse brain lysate (P14, mice with or without MMF administration), 3 h at 4 C; lysis buffer 20 mM Tris-HCl pH 8.0, 150 mM NaCl, 1 mM EDTA, 0.5% NP-40, 1 mM DTT; immunoblot; only the target purified
GST-Rhotekin RBD domain [2] = target: GST-Rhotekin RBD domain (UniProt Q8C6B2); test: pull-down; 2 ug recombinant GST fusion and glutathione-Sepharose beads mixed with BV2 cell lysate (cells with or without 1 uM MMF), 2 h at 4 C; lysis buffer 20 mM Tris-HCl pH 8.0, 150 mM NaCl, 1 mM EDTA, 0.5% NP-40, 1 mM DTT; immunoblot; only the target purified

RhoA (GTP-bound form) (from UniProt Q9QUI0 1-193)
binding (GST-Rhotekin RBD domain [1]): binds | binding (GST-Rhotekin RBD domain [2]): binds
